Experimental data reported in US20130183315A1.
No constants are given. Whether binding was seen depends on the method and setting. Some binding calls cover weakened binding; strength is not graded here.

Amino acid sequences for entries named in this document (tags omitted). A change or cut given only in a name is not applied to a line headed by its entry.
UniProt P43489: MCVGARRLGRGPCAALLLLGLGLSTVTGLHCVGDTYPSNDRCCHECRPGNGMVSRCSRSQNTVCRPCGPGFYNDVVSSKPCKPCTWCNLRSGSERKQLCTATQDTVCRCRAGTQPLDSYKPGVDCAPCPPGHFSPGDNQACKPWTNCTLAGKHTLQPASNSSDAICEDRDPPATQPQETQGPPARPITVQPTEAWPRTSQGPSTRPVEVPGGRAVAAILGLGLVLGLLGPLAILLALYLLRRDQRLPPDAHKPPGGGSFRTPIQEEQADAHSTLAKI

What was measured:
[1] = biological target: chimeric HHRR OX40 protein (Fc fusion) (human-rat chimera; human); experiment: ELISA on coated OX40 Fc fusion (2 µg/mL), anti-human F(ab')2-HRP detection; antibody concentration not given
[2] = biological target: chimeric RHRR OX40 protein (Fc fusion) (human-rat chimera; human); experiment: as above
[3] = biological target: recombinant human OX40-Fc protein (human) (UniProt P43489); experiment: as above
[4] = biological target: chimeric HHRR OX40 protein (Fc fusion) (human-rat chimera; human); experiment: binding ELISA on coated OX40 Fc fusion
[5] = biological target: chimeric RHRR OX40 protein (Fc fusion) (human-rat chimera; human); experiment: binding ELISA on coated OX40 Fc fusion
[6] = biological target: recombinant human OX40-Fc protein (human) (UniProt P43489); experiment: binding ELISA on coated OX40 Fc fusion
[7] = biological target: recombinant human OX40-Fc protein (human) (UniProt P43489); experiment: blocking ELISA on coated human OX40-Fc; blocked ligand: biotinylated recombinant human OX40L, streptavidin-HRP detection

Measured: binding

B1: VH6/VL9 antibody (antibody, human IgG1, kappa, V domains shown)
VH: QVTLKESGPALVKPTQTLTLTCSFSGFSLSTSGMGVGWIRQPPGKALEWIAHIWWDDDKYYNTALKTRLTISKDTSKNQVVLTMTNMDPVDTATYYCARIDWDGFAYWGQGTLVTVSS
VL: EIVLTQSPATLSLSPGERATLSCRASSSVSYMHWYQQKPGQAPRPWIYATSNRATGIPARFSGSGSGTDYTLTISSLEPEDFAVYYCQQWSSNPWTFGQGTKVEIKR
not listed: [7]
binds: all other assays above

B2: chimeric 1D4 antibody (antibody, human IgG1, kappa, V domains shown)
VH: QVTLKESGPGILQPSQTLSLTCSFSGFSLSTSGMGVGWIRQPSGKGLEWLAHIWWDDDKYYNTALKSGLTISKDTSKNQVFLKIASVDTTDTATYYCARIDWDGFAYWGQGTLVTVSS
VL: QIVLTQSPAILSASPGEKVTMTCRASSSVSYMHWYQQKPGSSPKPWIYATSNLASGVPARFSGSGSGTSYSLTINRVEAEDAATYYCQQWSSNPWTFGGGTKLEIKR
binds: [7]
